According to patent US20220160747A1, “PHARMACEUTICAL COMPOSITION COMPRISING NOVEL AZOLOPYRIMIDINE HETEROCYCLIC COMPOUND AS ACTIVE INGREDIENT” (KOREA RESEARCH INSTITUTE OF CHEMICAL TECHNOLOGY, priority 2019, published 2022):
The match of structure and compound is tentative.

Amino acid sequences for entries named in this document (tags omitted). Residues count along the entry.
UniProt P21589, 27-549 limits assumed: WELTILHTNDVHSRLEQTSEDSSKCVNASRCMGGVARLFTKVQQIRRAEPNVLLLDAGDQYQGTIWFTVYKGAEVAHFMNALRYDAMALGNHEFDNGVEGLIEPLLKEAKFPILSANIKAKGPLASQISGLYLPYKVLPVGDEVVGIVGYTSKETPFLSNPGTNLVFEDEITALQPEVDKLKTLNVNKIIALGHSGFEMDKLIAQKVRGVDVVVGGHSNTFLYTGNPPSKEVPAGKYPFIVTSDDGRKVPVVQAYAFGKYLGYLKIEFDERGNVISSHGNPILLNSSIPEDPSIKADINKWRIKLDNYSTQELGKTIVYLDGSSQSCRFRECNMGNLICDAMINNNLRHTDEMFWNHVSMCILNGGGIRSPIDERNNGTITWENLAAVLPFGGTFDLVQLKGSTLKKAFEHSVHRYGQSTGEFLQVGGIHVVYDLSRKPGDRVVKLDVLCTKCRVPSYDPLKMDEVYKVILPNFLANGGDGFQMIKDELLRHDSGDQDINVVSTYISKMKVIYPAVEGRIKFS

Biological target: human CD73 recombinant protein (Homo sapiens, UniProt P21589)
Assay: Enzyme assay, CD73 (Malachite green kit)
Conditions: read-out: Enzyme Activity (IC50, μM) CD73, AMP added, incubation 30 minutes
Procedure: Referring to a method described in a reference document [Front Pharmacol. 2018 Mar. 1; 9:153], an enzyme assay was performed. Each of human CD73 and CD39 recombinant proteins was produced and then purified and isolated, and used in an enzyme assay. A buffer was basically 25 mM Tris, 5 mM MgCl2, pH 7.5 as an assay buffer, and for assay, human CD73 and CD39 recombinant protein were diluted at an appropriate concentration, respectively, in the assay buffer, adenosine monophosphate (AMP) (Sigma, Catalog #A1752) at an appropriate concentration was added, and then incubation was performed for 30 minutes. At the time, the azolopyrimidine heterocyclic compounds of the present invention were treated for each concentration and incubated together, thereby measuring a degree of inhibiting activity of CD73 or CD39.

IC50: 1.1 to 5 µM
SMILES: CN(Cc1cccc(F)c1)c1ncnc2c1ncn2[C@@H]1O[C@H](COC(=S)Oc2ccccc2)[C@H]2OC(C)(C)O[C@H]21
